Laboratory results reported in the supplement of paper PMC7661543.
The effect of the compound repeats well; differences between the knockouts mostly do not.

System: SKBR3
Assay: relative cell number vs DMSO control (72 h) (% of DMSO); higher = less growth inhibition (more cells)
Description: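 QMAP-Seq: a pool of 5 breast cancer cell lines (ZR-75-1, SKBR3, HCC-38, MDA-MB-231, BT-20), each carrying 12 doxycycline-inducible Cas9 sgRNA perturbations (11 knockouts plus non-targeting sgNT), was treated with compounds for 72 h at four 10-fold doses (10 nM-10 uM or 1 nM-1 uM range). Barcodes were amplified and sequenced, and cell number was interpolated from 293T spike-in standard curves. The result is expressed as % of the median of DMSO wells. Two biological replicates.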

Cn1c(CCCC(=O)O)nc2cc(N(CCCl)CCCl)ccc21 [Bendamustine]
Details	relative cell number
sgRNA knockout: sgATF3, 10 nM	98.4
sgRNA knockout: sgATF3, 100 nM	104
sgRNA knockout: sgATF3, 1000 nM	114
sgRNA knockout: sgATF3, 10000 nM	129
sgRNA knockout: sgATF4, 10 nM	93.7
sgRNA knockout: sgATF4, 100 nM	97
sgRNA knockout: sgATF4, 1000 nM	100
sgRNA knockout: sgATF4, 10000 nM	99.1
sgRNA knockout: sgATF6, 10 nM	71.3
sgRNA knockout: sgATF6, 100 nM	98.9
sgRNA knockout: sgATF6, 1000 nM	90.7
sgRNA knockout: sgATF6, 10000 nM	92.2
sgRNA knockout: sgATG7, 10 nM	114
sgRNA knockout: sgATG7, 100 nM	108
sgRNA knockout: sgATG7, 1000 nM	111
sgRNA knockout: sgATG7, 10000 nM	130
sgRNA knockout: sgERN1, 10 nM	98.7
sgRNA knockout: sgERN1, 100 nM	98.4
sgRNA knockout: sgERN1, 1000 nM	108
sgRNA knockout: sgERN1, 10000 nM	124
sgRNA knockout: sgHSF1, 10 nM	102
sgRNA knockout: sgHSF1, 100 nM	100
sgRNA knockout: sgHSF1, 1000 nM	81.4
sgRNA knockout: sgHSF1, 10000 nM	95.8
sgRNA knockout: sgHSF2, 10 nM	97.9
sgRNA knockout: sgHSF2, 100 nM	104
sgRNA knockout: sgHSF2, 1000 nM	79.4
sgRNA knockout: sgHSF2, 10000 nM	83.6
sgRNA knockout: sgKEAP1, 10 nM	83.5
sgRNA knockout: sgKEAP1, 100 nM	106.17
sgRNA knockout: sgKEAP1, 1000 nM	107
sgRNA knockout: sgKEAP1, 10000 nM	86.9
sgRNA knockout: sgNFE2L2, 10 nM	91.7
sgRNA knockout: sgNFE2L2, 100 nM	118
sgRNA knockout: sgNFE2L2, 1000 nM	105
sgRNA knockout: sgNFE2L2, 10000 nM	97.4
sgRNA knockout: sgSLC35F2, 10 nM	101
sgRNA knockout: sgSLC35F2, 100 nM	107
sgRNA knockout: sgSLC35F2, 1000 nM	99.9
sgRNA knockout: sgSLC35F2, 10000 nM	99.5
sgRNA knockout: sgXBP1, 10 nM	94.1
sgRNA knockout: sgXBP1, 100 nM	131
sgRNA knockout: sgXBP1, 1000 nM	105
sgRNA knockout: sgXBP1, 10000 nM	122

C=C(C)[C@@H]1CC[C@]2(C(=O)O)CC[C@]3(C)[C@H](CC[C@@H]4[C@@]5(C)CC[C@H](O)C(C)(C)[C@@H]5CC[C@]43C)[C@@H]12 [BetulinicAcid]
Details	relative cell number
sgRNA knockout: sgATF3, 10 nM	95.5
sgRNA knockout: sgATF3, 100 nM	94.5
sgRNA knockout: sgATF3, 1000 nM	109
sgRNA knockout: sgATF3, 10000 nM	77.6
sgRNA knockout: sgATF4, 10 nM	95.8
sgRNA knockout: sgATF4, 100 nM	70.4
sgRNA knockout: sgATF4, 1000 nM	80.9
sgRNA knockout: sgATF4, 10000 nM	92.2
sgRNA knockout: sgATF6, 10 nM	76.2
sgRNA knockout: sgATF6, 100 nM	88.9
sgRNA knockout: sgATF6, 1000 nM	74.8
sgRNA knockout: sgATF6, 10000 nM	91.2
sgRNA knockout: sgATG7, 10 nM	80.3
sgRNA knockout: sgATG7, 100 nM	86
sgRNA knockout: sgATG7, 1000 nM	96.3
sgRNA knockout: sgATG7, 10000 nM	94.33
sgRNA knockout: sgERN1, 10 nM	77.9
sgRNA knockout: sgERN1, 100 nM	91.2
sgRNA knockout: sgERN1, 1000 nM	112
sgRNA knockout: sgERN1, 10000 nM	114
sgRNA knockout: sgHSF1, 10 nM	91.5
sgRNA knockout: sgHSF1, 100 nM	98.6
sgRNA knockout: sgHSF1, 1000 nM	95.2
sgRNA knockout: sgHSF1, 10000 nM	75.4
sgRNA knockout: sgHSF2, 10 nM	104
sgRNA knockout: sgHSF2, 100 nM	81.3
sgRNA knockout: sgHSF2, 1000 nM	92.1
sgRNA knockout: sgHSF2, 10000 nM	93.7
sgRNA knockout: sgKEAP1, 10 nM	89.9
sgRNA knockout: sgKEAP1, 100 nM	87.8
sgRNA knockout: sgKEAP1, 1000 nM	80.3
sgRNA knockout: sgKEAP1, 10000 nM	92.8
sgRNA knockout: sgNFE2L2, 10 nM	83.3
sgRNA knockout: sgNFE2L2, 100 nM	92.2
sgRNA knockout: sgNFE2L2, 1000 nM	71.5
sgRNA knockout: sgNFE2L2, 10000 nM	84
sgRNA knockout: sgSLC35F2, 10 nM	118
sgRNA knockout: sgSLC35F2, 100 nM	92.2
sgRNA knockout: sgSLC35F2, 1000 nM	88.9
sgRNA knockout: sgSLC35F2, 10000 nM	81.08
sgRNA knockout: sgXBP1, 10 nM	89.3
sgRNA knockout: sgXBP1, 100 nM	101
sgRNA knockout: sgXBP1, 1000 nM	71.3
sgRNA knockout: sgXBP1, 10000 nM	107

C=C(c1ccc(C(=O)O)cc1)c1cc2c(cc1C)C(C)(C)CCC2(C)C [Bexarotene]
Details	relative cell number
sgRNA knockout: sgATF3, 10 nM	109
sgRNA knockout: sgATF3, 100 nM	88.05
sgRNA knockout: sgATF3, 1000 nM	65.6
sgRNA knockout: sgATF3, 10000 nM	87.826
sgRNA knockout: sgATF4, 10 nM	91
sgRNA knockout: sgATF4, 100 nM	87.3
sgRNA knockout: sgATF4, 1000 nM	79.8
sgRNA knockout: sgATF4, 10000 nM	80.9
sgRNA knockout: sgATF6, 10 nM	99.3
sgRNA knockout: sgATF6, 100 nM	74.3
sgRNA knockout: sgATF6, 1000 nM	80.3
sgRNA knockout: sgATF6, 10000 nM	82.9
sgRNA knockout: sgATG7, 10 nM	116
sgRNA knockout: sgATG7, 100 nM	90.8
sgRNA knockout: sgATG7, 1000 nM	75.4
sgRNA knockout: sgATG7, 10000 nM	66.8
sgRNA knockout: sgERN1, 10 nM	94.6
sgRNA knockout: sgERN1, 100 nM	86.2
sgRNA knockout: sgERN1, 1000 nM	99.1
sgRNA knockout: sgERN1, 10000 nM	93.2
sgRNA knockout: sgHSF1, 10 nM	116
sgRNA knockout: sgHSF1, 100 nM	78.5
sgRNA knockout: sgHSF1, 1000 nM	84
sgRNA knockout: sgHSF1, 10000 nM	91
sgRNA knockout: sgHSF2, 10 nM	89.33
sgRNA knockout: sgHSF2, 100 nM	93.3
sgRNA knockout: sgHSF2, 1000 nM	101
sgRNA knockout: sgHSF2, 10000 nM	83.7
sgRNA knockout: sgKEAP1, 10 nM	104
sgRNA knockout: sgKEAP1, 100 nM	78.2
sgRNA knockout: sgKEAP1, 1000 nM	93.8
sgRNA knockout: sgKEAP1, 10000 nM	79.6
sgRNA knockout: sgNFE2L2, 10 nM	103
sgRNA knockout: sgNFE2L2, 100 nM	105
sgRNA knockout: sgNFE2L2, 1000 nM	90.69
sgRNA knockout: sgNFE2L2, 10000 nM	102
sgRNA knockout: sgSLC35F2, 10 nM	119
sgRNA knockout: sgSLC35F2, 100 nM	73.8
sgRNA knockout: sgSLC35F2, 1000 nM	84.2
sgRNA knockout: sgSLC35F2, 10000 nM	98.1
sgRNA knockout: sgXBP1, 10 nM	108
sgRNA knockout: sgXBP1, 100 nM	96.3
sgRNA knockout: sgXBP1, 1000 nM	87.6
sgRNA knockout: sgXBP1, 10000 nM	88.4
